Data from PubChem BioAssay AID2685 (National Center for Advancing Translational Sciences (NCATS), 2010).
Some of the results follow. The main result of the screen is listed elsewhere. These columns were measured beside it and carry no call. The list favours compounds with an active or inconclusive main result. Potencies come from curve fits of mixed quality, noted in brackets.

Experiment: qHTS Assay for Lipid Storage Modulators in Drosophila S3 Cells;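 on cell number change: cells counted by Cell Tracker Red CMTPX staining in the red channel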
Details: BODIPY lipid droplet fluorescence, 18-24 h; for cell number change: measured here: cell count max response, cells fed with added oleic acid
In short: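 Laser-scanning cytometry quantifies lipid droplet accumulation (500–530 nm total intensity; droplet/cell object ratio) in oleic acid-fed (400 uM added) Drosophila S3 cells treated with a concentration series. 20 uM Triacsin C defined 100% inhibition.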

[1] = measured here: lipid fluorescence (Fed channel) AC50, cells fed with added oleic acid
[2] = measured here: cell number channel AC50, cells fed with added oleic acid

Row | SMILES | cell number change [%] | AC50 [1] | AC50 [2]
1 | CC(C)CCC(O)(c1ccccc1)C(CN1CCOCC1)c1ccccc1 (stereo not drawn) | 0.709 | 1.16 µM [rising, full curve, poor fit] | –
2 | O=C(Nc1ccc(S(=O)(=O)Nc2nccs2)cc1)c1cc(-c2ccccn2)nc2ccccc12 | 39.7 | – | 29.1 µM [rising, single point]
3 | Cc1ccc(CN2CCN(C3CCC3)CC2CCO)cc1 (stereo not drawn) | 17.3 | 5.8 µM [rising, full curve] | –
4 | O=C(CNc1cccc2ccccc12)N/N=C/c1cccc(Oc2ccccc2)c1 | 1.91 | – | –
5 | COc1cccc(NC(=O)C(C)Oc2ccccc2)c1 (stereo not drawn) | -4.33 | 11.6 µM [rising, single point] | –
6 | N#Cc1ccc(C(=O)NC2CCCc3ccccc32)cc1 (stereo not drawn) | -23.9 | – | –
7 | CC1CCCCN1Cc1c(O)ccc2c(=O)c(-c3ccc(Br)cc3)coc12 (stereo not drawn) | -1.39 | 4.11 µM [rising, full curve] | –
8 | COCCNC(=O)CS(=O)(=O)Cc1nc(-c2ccc(C)cc2)oc1C | 6.84 | 7.31 µM [rising, partial curve, poor fit] | –
9 | CCn1nnnc1NCc1ccc(SC)cc1 | 11.6 | 14.6 µM [rising, single point] | –
10 | Cc1nn(Cc2ccc(F)cc2)c(C)c1NC(=O)c1noc2c1CCCCC2 | – | 1.16 µM [rising, full curve, poor fit] | 0.731 µM [rising, single point]
11 | Cc1noc(NS(=O)(=O)c2ccc(NC(=O)/C=C/c3ccc(Br)cc3)cc2)c1C | 11 | 29.1 µM [rising, partial curve] | 4.11 µM [rising, single point]
12 | CN(CC(=O)Nc1ccccc1Cl)C(=O)Cn1cc(C(F)(F)F)ccc1=O | 5.17 | 29.1 µM [rising, single point] | –
13 | S=C(NC1CCCCC1)N1CCOCCOCCN(C(=S)NC2CCCCC2)CCOCC1 | -16.5 | 32.6 µM [falling, single point] | –
14 | O=C(O)c1cccc(-c2ccc(/C=N/NC(=O)C3COc4ccccc4O3)o2)c1 (stereo not drawn) | 9.87 | 1.84 µM [rising, partial curve, poor fit] | –
15 | C#CCOCCOCCOCCNc1nc(N2CCN(C(=O)[C@H](CCCCN)n3cc(CC(C)O)nn3)CC2)nc(N2CCN(C(=O)[C@H](CCCCN)n3cc(CC(C)O)nn3)CC2)n1 (stereo partly drawn) | 5.02 | 3.26 µM [falling, single point] | 6.51 µM [falling, single point]
16 | O=C(c1ccccc1)c1cccc(NC(=O)c2ccc(Br)o2)c1 | 24.1 | 1.46 µM [rising, full curve] | 2.06 µM [rising, single point]
17 | O=C(NC(=S)Nc1ccccn1)c1cncc(Br)c1 | 12.1 | 1.64 µM [rising, full curve, poor fit] | –
18 | CCN1CCN(C(=O)CSc2nc3c(c(=O)n(C)c(=O)n3C)n2C)CC1 | 6.41 | 29.1 µM [falling, single point] | –
19 | COc1ccc(-c2cc(-c3n[nH]c(=S)n3-c3ccccc3OC)[nH]n2)cc1 | – | 0.651 µM [rising, partial curve, poor fit] | –
20 | CC1(C)Cc2cccc(OCC(=O)NCc3ccccc3F)c2O1 | -17.6 | – | –

Row | SMILES | cell number change [%] | AC50 [1] | AC50 [2]
21 | O=C(Cn1c(=O)oc2cc(S(=O)(=O)N3CCCCC3)ccc21)N1CCc2ccccc2C1 | -7.06 | – | –
22 | CCc1ccc(CN(C)C(=O)C2CCC(=O)N(Cc3cccc(OC)c3)C2)nc1 (stereo not drawn) | 23.7 | 6.51 µM [falling, single point] | –
23 | CC(C)CNC(=S)Nc1ccccc1F | -13 | 29.1 µM [falling, single point] | –
24 | COc1ccc(C(=O)N2N=C(c3cccc(OC)c3)CC2(O)C(F)(F)F)cc1 (stereo not drawn) | 55.9 | 2.31 µM [rising, full curve] | 9.2 µM [rising, partial curve]
25 | COc1ccc(NC(=O)CC2C(=O)N(c3ccc(OC)cc3)C(=O)N2CCc2cccs2)cc1 (stereo not drawn) | 45 | 6.51 µM [rising, single point] | 4.61 µM [rising, partial curve]
26 | CC(C)CN(C(=O)c1cccc(S(=O)(=O)N2CCCCC2)c1)C1CCS(=O)(=O)C1 (stereo not drawn) | -7.03 | 2.59 µM [falling, full curve, poor fit] | –
27 | COc1ccc(/C=N/NC(=O)c2cccnc2)cc1CSc1ccccn1 | 12.3 | 1.16 µM [rising, full curve, poor fit] | –
28 | C=CCOc1ccccc1CN1CCCN(C)CC1 | 12.6 | – | –
29 | COc1ccc(/C=N/NC(N)=S)cc1OC(=O)c1ccccc1 | 50.6 | – | 16.4 µM [rising, single point]
30 | Cc1cc(C(=O)NCc2cc(C)n(C)n2)sc1-c1ccccc1 | -22.1 | 6.51 µM [rising, single point] | 6.51 µM [rising, single point]
31 | Cc1ccc2c(cnn2C(=O)CCCC(=O)NC(C)c2ccccc2)c1 (stereo not drawn) | -17 | 29.1 µM [rising, single point] | –
32 | CCCOc1ccccc1C1CC(=O)Nc2cc3c(cc21)OCO3 (stereo not drawn) | -86.1 | – | –
33 | Cc1oc2ccc(OC(C(=O)O)c3ccccc3)cc2c1C(=O)O (stereo not drawn) | 19.2 | 13 µM [rising, partial curve] | –
34 | CCOc1cccc(NC(=O)/C(C#N)=C\c2cn(CC(=O)O)c3ccccc23)c1 | 2.07 | – | –
35 | CC(C)C(C)NC(=O)COC(=O)/C=C/c1ccc(S(=O)(=O)N2CCc3ccccc32)cc1 (stereo not drawn) | 40.5 | – | 11.6 µM [rising, partial curve]
36 | CN1C(=O)C2(OCCCO2)c2cc(Cl)ccc21 | -1.1 | 6.51 µM [rising, single point] | –
37 | CC(=O)c1ccc(N2CCN(C(=O)CCCn3c(=S)[nH]c4cc5c(cc4c3=O)OCO5)CC2)cc1 | -24.3 | 29.1 µM [falling, single point] | –
38 | O=C(COC(=O)c1nc(Cl)ccc1Cl)NCc1ccccc1 | -2.46 | 18.4 µM [falling, single point] | –
39 | O=C(NC12CC3CC(CC(C3)C1)C2)C12CC3CC(C1)CC(n1cnc(Cl)n1)(C3)C2 | -11.4 | – | 0.0291 µM [falling, full curve, poor fit]
40 | COc1ccc(NC(=O)c2cc3c(-c4ccc(OC)c(OC)c4)nn(C)c3s2)cc1OC | – | – | 2.31 µM [rising, partial curve]

5 structures already listed, sorted by SMILES length, smallest number first:
Row | SMILES | cell number change [%] | AC50 [1] | AC50 [2]
36 | CN1C(=O)C2(OCCCO2)c2cc(Cl)ccc21 | -1.1 | 6.51 µM [rising, single point] | –
17 | O=C(NC(=S)Nc1ccccn1)c1cncc(Br)c1 | 12.1 | 1.64 µM [rising, full curve, poor fit] | –
38 | O=C(COC(=O)c1nc(Cl)ccc1Cl)NCc1ccccc1 | -2.46 | 18.4 µM [falling, single point] | –
7 | CC1CCCCN1Cc1c(O)ccc2c(=O)c(-c3ccc(Br)cc3)coc12 (stereo not drawn) | -1.39 | 4.11 µM [rising, full curve] | –
2 | O=C(Nc1ccc(S(=O)(=O)Nc2nccs2)cc1)c1cc(-c2ccccn2)nc2ccccc12 | 39.7 | – | 29.1 µM [rising, single point]

(further entries)

Row | SMILES | cell number change [%] | AC50 [1] | AC50 [2]
41 | COc1ccc(/C=C/C(=O)c2ccc3c(c2)OCCO3)cc1[N+](=O)[O-] | -22.8 | 29.1 µM [falling, single point] | –
42 | COc1ccc(N=C2S/C(=C\c3ccc(OCC(=O)O)cc3)C(=O)N2CCc2c[nH]c3ccccc23)cc1 | 24.3 | – | 3.66 µM [falling, single point]
43 | CC1CCCN(C(=O)CSCC(=O)N=c2sc3ccccc3n2C)C1 (stereo not drawn) | – | 2.91 µM [rising, partial curve] | 0.651 µM [rising, single point]
44 | Cn1c(=O)c2c(SCC(=O)NCC3CCCO3)nc(-c3cccs3)nc2n(C)c1=O (stereo not drawn) | – | 0.116 µM [rising, full curve, poor fit] | 0.082 µM [rising, full curve, poor fit]
45 | O=C(CCC(NC(=O)OCc1ccccc1)C(=O)OCc1ccccc1)NCC(=O)OCc1ccccc1 (stereo not drawn) | 18.1 | 0.0058 µM [rising, full curve, poor fit] | –
46 | CC1=C(C(=O)OCC(C)C)C23C(=O)c4ccccc4C2(O1)OC(N)=C3C#N (stereo not drawn) | 0.349 | 0.731 µM [rising, single point] | –
47 | CN(C)c1ccc(/C=C2\CCC/C(=C\c3ccccc3)C2=O)cc1 | -98.1 | 16.4 µM [falling, partial curve] | 20.6 µM [falling, partial curve]
48 | Cc1ccc(N(CCC#N)C(=O)CSc2nc3ccccc3c(=O)[nH]2)cc1 | 16.6 | 5.8 µM [rising, single point] | –
49 | O=C(CCS(=O)(=O)c1ccccc1)NC1CCCC1 | 6.52 | 16.4 µM [rising, single point] | –
50 | CC(OC(=O)C1CC(=O)N(Cc2ccco2)C1)C(=O)Nc1cccc(C#N)c1 (stereo not drawn) | -14.5 | – | –
51 | Oc1ccc(/C=N/Nc2ccnc3cc(Cl)ccc23)cc1O | -20.5 | 29.1 µM [falling, single point] | –
52 | COCCCn1c(C)nnc1SCC(=O)NNC(=O)COc1ccc(Cl)cc1 | – | 29.1 µM [rising, single point] | –
53 | COc1ccc(-c2cc(C(=O)N3CCCC(C(F)(F)F)C3)c3ccccc3n2)cc1OC (stereo not drawn) | 4.32 | – | –
54 | Cc1ccc(-n2ncc3c(=O)n(CC#N)cnc32)cc1C | -15.7 | 0.411 µM [falling, full curve, poor fit] | –
55 | COc1ccc(NC(=O)CN(C)C(=O)c2cc(CN3C(=O)c4ccccc4C3=O)ccc2OC)cc1 | 42.1 | 29.1 µM [rising, single point] | 7.31 µM [rising, partial curve]
56 | COc1ccccc1CNS(=O)(=O)c1c(C)nc2scc(C)n2c1=O | 5.65 | 29.1 µM [falling, single point] | –
57 | COc1ccc(C(=O)Nc2ccc([N+](=O)[O-])cn2)cc1OC | -50 | 5.8 µM [rising, partial curve] | 29.1 µM [falling, single point]
58 | CC1CCCC(C)N1S(=O)(=O)c1ccc(NC(=O)CCN2C(=O)C3CC=CCC3C2=O)cc1 (stereo not drawn) | 49 | – | 16.4 µM [rising, single point]
